Results on one molecule are retold here after doi:10.1101/2023.10.16.555467.

The chains behind the UniProt entries cited, without tags or fusion partners.
UniProt P35465: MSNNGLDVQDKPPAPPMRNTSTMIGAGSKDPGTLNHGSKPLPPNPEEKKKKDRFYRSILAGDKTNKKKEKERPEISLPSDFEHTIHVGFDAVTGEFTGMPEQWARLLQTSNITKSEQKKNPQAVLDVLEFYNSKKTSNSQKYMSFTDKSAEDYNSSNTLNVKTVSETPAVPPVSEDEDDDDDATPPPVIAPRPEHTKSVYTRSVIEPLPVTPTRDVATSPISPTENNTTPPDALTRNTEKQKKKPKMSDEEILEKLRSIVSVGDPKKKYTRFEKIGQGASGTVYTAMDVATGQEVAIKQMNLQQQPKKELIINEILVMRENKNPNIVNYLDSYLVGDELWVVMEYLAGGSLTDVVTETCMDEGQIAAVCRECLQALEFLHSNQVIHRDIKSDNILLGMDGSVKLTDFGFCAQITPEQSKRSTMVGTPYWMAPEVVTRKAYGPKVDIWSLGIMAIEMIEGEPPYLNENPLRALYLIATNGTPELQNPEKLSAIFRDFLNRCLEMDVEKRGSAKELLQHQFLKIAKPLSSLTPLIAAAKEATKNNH

The target in test [1] is P21-activated kinase 1 (PAK1) (rat (endogenous in primary rat oligodendrocytes)) (UniProt P35465). Briefly: co-IP.
Test [2] shares this target. Briefly: co-IP. The source holds these as a separate data set.

Like-named read-outs stand apart in the source and are kept apart here. Results are given in words; binding and its absence hold for the method and conditions named. Binding seen in cells or lysates may run through a third protein. Some results given as binding are weak or reduced against the parent protein; the word gives no strength.

B1: NF2/Merlin (protein, UniProt Q63648 1-586)
chain: IASRMSFSSLKRKQPKTFTVRIVTMDAEMEFNCEMKWKGKDLFDLVCRTLGLRETWFFGLQYTIKDTVAWLKMDKKVLDHDVSKEEPVTFHFLAKFYPENAEEELVQEITQHLFFLQVKKQILDEKVYCPPEASVLLASYAVQAKYGDYDPSVHKRGFLAQEELLPKRVINLYQMTPEMWEERITAWYAEHRGRARDEAEMEYLKIAQDLEMYGVNYFTIRNKKGTELLLGVDALGLHIYDPENRLTPKISFPWNEIRNISYSDKEFTIKPLDKKIDVFKFNSSKLRVNKLILQLCIGNHDLFMRRRKADSLEVQQMKAQAREEKARKQMERQRLAREKQMREEAERSRDEPERRVLHMKEEATMANEALMRSEETADLLAEKAQITEEEAKLLAQKAAEAEQEMQRIKATAIRTEEEKRLMEQKVLEAEVLALKMAEESERRAKEADQLKQDLQEAREAERRAKQKLLEIATKPTYPPMNPIPAPLPPDIPSFDIIGDSLSFDFKDTDMKRLSMEIEKEKVEYMEKSKHLQEQLNELKTEIEALKLKERETALDILHSEHSDSGTSSKHNTIKKPQAQGRRPICI
In the case of B1, the binding entry in test [1] and in test [2] was “binds” in each case.
